## Screening data, single-dose tests

By UniProt entry, the sequences of proteins in these tests, tags left out. Residues count along the entry.
UniProt A4I591, 1-473: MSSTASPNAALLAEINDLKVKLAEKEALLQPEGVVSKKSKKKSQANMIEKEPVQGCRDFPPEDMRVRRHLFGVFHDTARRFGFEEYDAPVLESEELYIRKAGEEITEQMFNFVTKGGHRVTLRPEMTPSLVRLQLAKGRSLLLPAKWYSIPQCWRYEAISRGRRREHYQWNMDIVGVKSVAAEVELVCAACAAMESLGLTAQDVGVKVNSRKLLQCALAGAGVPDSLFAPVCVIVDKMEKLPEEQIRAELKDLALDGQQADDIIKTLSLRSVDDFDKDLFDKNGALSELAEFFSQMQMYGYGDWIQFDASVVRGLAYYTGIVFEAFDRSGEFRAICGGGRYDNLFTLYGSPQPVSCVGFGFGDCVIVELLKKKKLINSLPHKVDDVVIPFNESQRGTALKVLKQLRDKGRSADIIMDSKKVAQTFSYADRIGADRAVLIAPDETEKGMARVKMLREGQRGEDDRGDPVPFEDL
UniProt P9WPC5, whole entry: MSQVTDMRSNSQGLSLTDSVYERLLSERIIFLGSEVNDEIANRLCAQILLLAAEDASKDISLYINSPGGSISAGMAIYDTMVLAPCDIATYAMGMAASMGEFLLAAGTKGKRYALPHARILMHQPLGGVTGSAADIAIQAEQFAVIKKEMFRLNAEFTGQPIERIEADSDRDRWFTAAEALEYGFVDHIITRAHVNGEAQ
UniProt P9WPC3, whole entry partner: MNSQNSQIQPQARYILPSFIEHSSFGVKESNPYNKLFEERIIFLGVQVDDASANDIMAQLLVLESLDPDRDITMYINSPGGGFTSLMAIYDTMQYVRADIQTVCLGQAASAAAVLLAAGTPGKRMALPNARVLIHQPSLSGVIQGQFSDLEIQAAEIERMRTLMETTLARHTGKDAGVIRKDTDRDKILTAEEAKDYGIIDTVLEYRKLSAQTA

The values are deposited in ChEMBL (CHEMBL3988442, “University of Dundee, Small-Polar-MMV Screening Library” (2021)).

LiHisRS: 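Histidine-tRNA ligase, Leishmania infantum (UniProt A4I591). Enzyme assay of histidyl-tRNA synthetase; the read-out is not stated. Tested at 30 µM. Higher reads as stronger inhibition (inferred: compounds with an IC50 in retests scored well above the rest). The assay is labelled LdHisRS but filed under L. infantum. About 69,000 compounds were tested under these conditions; 0.6% (about 410) showed 50% or more at least once.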
Toxoplasma: 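Assay of Toxoplasma gondii numbers, read through their beta-galactosidase reporter with a colour substrate. Compounds at 10 µM. Higher reads as fewer parasites (inferred from which compounds were picked for retests). Size under these conditions: about 67,000 compounds, about 260 of them at 50% or above in at least one test.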
ClpP1P2: 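Protease assay of ClpP1P2, read by the AMC dye that it sets free. Target: ClpP1P2, Mycobacterium tuberculosis (UniProt P9WPC5 and UniProt P9WPC3). Tested at 50 µM. Higher reads as stronger inhibition, judged from the few compounds that gave an IC50. Most other retested compounds had strongly negative values. About 69,000 compounds were tested under these conditions; 0.015% (about 10) showed 50% or more at least once.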
T. brucei: 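Whole-parasite assay of Trypanosoma brucei over 72 hours; the read-out is not stated. Tested at 30 µM. The record gives no direction; compounds that gave an IC50 in retests scored well above the rest, so higher reads as stronger inhibition. Values scatter widely below zero; nearly all retest evidence comes from the higher of the two concentrations used. Size under these conditions: about 64,000 compounds, about 940 of them at 50% or above in at least one test.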
Leishmania in macrophages: 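Cell assay of Leishmania donovani living inside macrophages; the read-out is not stated. Tested at 30 µM. Higher reads as stronger inhibition (inferred: compounds with an IC50 in retests scored well above the rest). Of about 69,000 compounds tested this way, about 1,000 (1.5%) reached 50% or more in at least one test.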

The filed quantity is “Percent Effect” (%). The record does not define 0% and 100%; most values in the screen are far below 50% and negative numbers occur (in some assays of this library far below -100). The compounds are a random part of those screened. Two or more numbers in one place are separate tests of the same structure; such repeats can differ widely. A dash means the value is not listed here; it may have been measured.

Compound | LiHisRS | Toxoplasma | ClpP1P2 | T. brucei | Leishmania in macrophages
O=C(NC1CCCCC1)N1CCC(n2cc(-c3ccccn3)nn2)CC1 | 9.302% | 2.504% | -11.58% | -5.872% | -4.481%
CC(c1cccc(Cl)c1)N(C)Cc1nc2c(cnn2C)c(=O)[nH]1 (stereo unspecified) | 18.35% | 9.127% | -23.73% | - | 38.02%
O=C(CCCN1CCOC1=O)Nc1cnn(-c2ccccc2Cl)c1 | 20% | -6.094% | 12.72% | -20.31% | 28.3%
Cc1cc(NCCc2c(C)n[nH]c2C)nc(-c2cccnc2)n1 | 15.29% | 24.45% | 29.02% | -28.98% | 4.777%
CC(C)(C)c1n[nH]c(C2CN(Cc3nnc(C4CCC4)o3)CCO2)n1 (stereo unspecified) | 5.085% | 3.749% | -9.915% | - | 11.21%
O=C(O)C(F)(F)F.[H][C@@]12COC[C@]1(COCC(=O)N(C)C)CN(Cc1csc(C)n1)C2 | - | -1.634% | - | -28.68% | 4.037%
Cc1noc([C@]23COC[C@H]2CN(S(=O)(=O)C2CC2)C3)n1 | 16% | - | 0.4697% | - | -
CC(NCc1ccco1)c1nnc2n1CCCC2 (stereo unspecified) | 0% | 3.522% | -1.224% | -26.13% | -15.36%
CC(=O)N1CCC(Oc2cccc(C#N)c2)CC1 | 0.8403% | -0.8207% | 0.4204% | -45.52% | 2.649%
Cc1ccc(CN2CC[C@H]3OCC[C@@H](C(=O)NCC4CC4)[C@@H]3C2)s1 | 11.43% | - | -8.899% | - | -
[H][C@@]12CCN(C(=O)c3cnccn3)C[C@@]1([H])O[C@@H](c1nc(C)cs1)C2 | - | -2.032% | - | -36.55% | 11.81% & 10.97%
CCc1nc(NCCCOC)c2c(n1)c(C)nn2C | 17.48% | 6.336% | 9.685% | 29.08% | 20.22%
Cc1sc(NC(=O)CN(C)S(C)(=O)=O)c(C#N)c1C | 18.45% | -4.878% | -0.8369% | 51.13% | 17.34%
COCC(=O)Nc1ccc(C)cc1-c1nc(C2CC2)no1 | 19.57% | - | -19.5% | -10.31% | -42.08%
CNc1cc(C2CN(Cc3scnc3C)CCO2)nc(C)n1 (stereo unspecified) | 10.34% | 2.252% | -14.37% | 8.037% | 32.71%
COCc1nc(C(=O)N2CCCCC2Cn2cc(C)cn2)cs1 (stereo unspecified) | -24% | -7.029% | -0.3563% | -86.41% | -35.79%
FC1(F)CCN(Cc2cccnc2)CC12CCN(c1ccccc1)C2.O=C(O)C(F)(F)F.O=C(O)C(F)(F)F.O=C(O)C(F)(F)F (stereo unspecified) | - | -41.35% | - | 100.3% | 99.13%
Cc1csc2cc(C(=O)NC3CC3)cnc12 | 13.86% | -7.663% | -9.574% | -14.28% | -7.202%
O=C(O)C(F)(F)F.[H][C@@]12OCCN(C(=O)c3cnccn3)[C@@]1([H])CC[C@H]2OCc1cccnc1 | - | 0.05634% | - | -13.77% | 16.69%
Cc1ccc(N2CCC3(CCN(C(=O)c4ccoc4)CC3)CC2)nn1 | 11.5% | - | 4.847% | - | -
CCn1ccnc1CN1CCCN(C(=O)c2sccc2C#N)CC1 | 5.618% | - | -7.854% | -35.69% | 39.41%
Cc1cnn(CC(C)NCc2csc(-c3ccsc3)n2)c1 (stereo unspecified) | 16.22% | 6.243% | -6.27% | 27.86% | 4.592%
Cc1cccc(CN2C[C@@H]3CN(C(=O)C4CCOC4)C[C@@H]3C2=O)c1 (stereo partly specified) | 21.78% | - | 7.893% | - | -
CC(C)n1ccnc1C1CCN(c2nccc(C(F)(F)F)n2)CC1 | 8.333% | 27.81% | -2.488% | -26.97% | 4.343%
c1ccc(CN2Cc3nccn3CC(Cn3cncn3)C2)nc1 (stereo unspecified) | 20.21% | - | 2.057% | - | -
CC(CNC(=O)NCc1ccc2c(c1)OCO2)CC1(C)OCCO1 (stereo unspecified) | -1.408% | 0% | 4.751% | -42.31% | -5.92%
CCC(=O)c1ccc(Br)cc1NN1c2cc(Br)ccc2C(=O)C1(C)OC (stereo unspecified) | 7.5% | 0.6554% | -10.23% | -19.11% | 24.9%
CCc1nnc2n1CCN(C(=O)C(OC)c1ccccc1)C2 (stereo unspecified) | 5% | 6.095% | -1.22% | -31.25% | 18.01%
Cc1cccc(CNC(=O)CC2CCN(Cc3ccccn3)CC2)n1 | 8.571% | 5.679% | -9.691% | 2.793% | 1.091%
[H][C@]12CC[C@]([H])(CN(C(=O)c3ccccn3)C1)N(C(=O)c1ccsc1)C2 | - | -16.63% | - | -28.62% | -36.38%
CC(C)C1CN(c2ncccn2)CCC(=O)N1CC1CC1 (stereo unspecified) | 10.4% | 10.87% | 10.32% | -24.4% | -30.25%
CCc1nc(CC(=O)NC(C#N)CC)cs1 (stereo unspecified) | 7.563% | -0.4419% | -1.933% | -34.59% | 6.826%
Cc1nn(-c2cc(Cl)cc(Cl)c2)c(C)c1CCC(=O)O | 15.84% | -14.76% | -5.297% | -1.992% | -23.32%
CN(C)C(CNC(=O)c1nc(N2CCCC2)ncc1Cl)c1ccco1 (stereo unspecified) | 9.167% | -4.566% | 13.41% | -18.1% | 10.54%
COc1cc(Cl)ccc1CNC(=O)N(C)C(C)CS(C)(=O)=O (stereo unspecified) | 24.44% | -4.616% | -4.811% | -77.31% | 29.12%
CC(C)(C)c1nc(CC(=O)NC2CCN(C3CC3)C2)cs1 (stereo unspecified) | 12.7% | -46.82% | -12.2% | 99.7% | 40.32%

For reference, 4 entries once more:

- Cc1cnn(CC(C)NCc2csc(-c3ccsc3)n2)c1 (stereo unspecified) | LiHisRS: 16.22%; Toxoplasma: 6.243%; ClpP1P2: -6.27%; T. brucei: 27.86%; Leishmania in macrophages: 4.592%
- O=C(O)C(F)(F)F.[H][C@@]12COC[C@]1(COCC(=O)N(C)C)CN(Cc1csc(C)n1)C2 | Toxoplasma: -1.634%; T. brucei: -28.68%; Leishmania in macrophages: 4.037%
- CC(C)C1CN(c2ncccn2)CCC(=O)N1CC1CC1 (stereo unspecified) | LiHisRS: 10.4%; Toxoplasma: 10.87%; ClpP1P2: 10.32%; T. brucei: -24.4%; Leishmania in macrophages: -30.25%
- Cc1cccc(CN2C[C@@H]3CN(C(=O)C4CCOC4)C[C@@H]3C2=O)c1 (stereo partly specified) | LiHisRS: 21.78%; ClpP1P2: 7.893%